Compound in this experiment: CCc1cnccc1C(=O)Nc1cc2c(cc1F)NC(=O)CC2
Put plainly: melting temperature shift (DMSO Tm minus MBE1-treated Tm) in cellular thermal proteome profiling; higher = less thermal stabilization by MBE1 (negative = stabilized by MBE1). The settings on record: A375.

Sequences of proteins named here, by UniProt entry; tags and fusion partners are left off. A change or cut given only in a name is not applied to a line headed by its entry.
UniProt Q9NUQ7: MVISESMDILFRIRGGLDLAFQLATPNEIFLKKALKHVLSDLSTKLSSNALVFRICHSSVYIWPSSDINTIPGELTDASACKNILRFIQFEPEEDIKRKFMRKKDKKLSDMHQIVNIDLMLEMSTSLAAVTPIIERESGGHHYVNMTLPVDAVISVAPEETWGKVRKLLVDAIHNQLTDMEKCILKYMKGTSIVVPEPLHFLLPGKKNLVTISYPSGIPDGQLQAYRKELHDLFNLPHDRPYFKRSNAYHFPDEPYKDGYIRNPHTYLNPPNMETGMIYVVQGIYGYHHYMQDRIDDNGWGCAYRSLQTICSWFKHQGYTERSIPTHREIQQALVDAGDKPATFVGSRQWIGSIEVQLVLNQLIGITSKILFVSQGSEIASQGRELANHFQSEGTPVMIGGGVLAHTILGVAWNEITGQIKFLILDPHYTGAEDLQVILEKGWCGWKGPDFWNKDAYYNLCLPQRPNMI
UniProt Q9HC35: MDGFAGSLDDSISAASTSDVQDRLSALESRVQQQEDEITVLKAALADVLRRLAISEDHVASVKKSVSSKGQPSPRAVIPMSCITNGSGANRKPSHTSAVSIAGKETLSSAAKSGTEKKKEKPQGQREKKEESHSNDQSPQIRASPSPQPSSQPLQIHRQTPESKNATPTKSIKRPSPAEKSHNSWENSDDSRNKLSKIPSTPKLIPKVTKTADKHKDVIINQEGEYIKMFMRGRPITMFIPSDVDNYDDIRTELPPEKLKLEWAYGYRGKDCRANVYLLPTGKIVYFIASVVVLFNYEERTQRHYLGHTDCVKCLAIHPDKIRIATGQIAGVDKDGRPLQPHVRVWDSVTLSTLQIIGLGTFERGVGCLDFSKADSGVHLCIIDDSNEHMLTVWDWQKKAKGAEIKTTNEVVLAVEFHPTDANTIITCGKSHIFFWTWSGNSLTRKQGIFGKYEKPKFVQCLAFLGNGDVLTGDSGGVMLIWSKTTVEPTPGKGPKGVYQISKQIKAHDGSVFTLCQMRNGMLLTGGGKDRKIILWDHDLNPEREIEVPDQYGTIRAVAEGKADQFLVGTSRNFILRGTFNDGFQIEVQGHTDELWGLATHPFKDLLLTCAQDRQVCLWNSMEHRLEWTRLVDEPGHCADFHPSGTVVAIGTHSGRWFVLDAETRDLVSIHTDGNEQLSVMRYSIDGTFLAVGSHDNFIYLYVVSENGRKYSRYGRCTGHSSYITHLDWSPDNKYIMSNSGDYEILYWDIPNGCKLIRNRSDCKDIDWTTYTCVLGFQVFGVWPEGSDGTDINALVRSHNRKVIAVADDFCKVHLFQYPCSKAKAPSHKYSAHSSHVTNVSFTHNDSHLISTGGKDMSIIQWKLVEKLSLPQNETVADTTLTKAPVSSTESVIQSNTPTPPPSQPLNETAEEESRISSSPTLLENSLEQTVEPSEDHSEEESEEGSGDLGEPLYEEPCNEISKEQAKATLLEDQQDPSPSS
UniProt Q9NVD7: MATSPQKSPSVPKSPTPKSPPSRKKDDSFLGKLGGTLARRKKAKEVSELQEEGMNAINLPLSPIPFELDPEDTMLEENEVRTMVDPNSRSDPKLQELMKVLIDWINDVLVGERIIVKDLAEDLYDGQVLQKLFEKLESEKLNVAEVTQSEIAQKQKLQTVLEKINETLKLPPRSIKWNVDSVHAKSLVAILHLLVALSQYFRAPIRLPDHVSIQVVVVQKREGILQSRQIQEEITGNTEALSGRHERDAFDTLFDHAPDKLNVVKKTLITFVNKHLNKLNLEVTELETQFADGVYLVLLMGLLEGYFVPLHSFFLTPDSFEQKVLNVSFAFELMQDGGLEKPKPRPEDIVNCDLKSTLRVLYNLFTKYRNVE
UniProt Q9NUL7: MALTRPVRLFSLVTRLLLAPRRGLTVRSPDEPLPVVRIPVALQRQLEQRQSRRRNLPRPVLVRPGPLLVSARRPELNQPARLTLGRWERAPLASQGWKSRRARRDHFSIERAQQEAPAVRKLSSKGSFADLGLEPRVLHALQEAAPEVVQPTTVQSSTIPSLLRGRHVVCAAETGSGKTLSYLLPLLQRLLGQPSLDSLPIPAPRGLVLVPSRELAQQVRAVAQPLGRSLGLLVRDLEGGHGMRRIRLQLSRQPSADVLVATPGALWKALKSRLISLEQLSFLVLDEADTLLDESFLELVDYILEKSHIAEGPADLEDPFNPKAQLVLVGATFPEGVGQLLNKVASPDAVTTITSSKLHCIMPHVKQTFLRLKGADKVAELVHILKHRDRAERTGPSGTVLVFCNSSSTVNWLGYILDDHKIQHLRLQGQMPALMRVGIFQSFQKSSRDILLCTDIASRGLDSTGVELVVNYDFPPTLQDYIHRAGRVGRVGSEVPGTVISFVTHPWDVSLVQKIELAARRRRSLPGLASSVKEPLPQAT
UniProt Q9NV31: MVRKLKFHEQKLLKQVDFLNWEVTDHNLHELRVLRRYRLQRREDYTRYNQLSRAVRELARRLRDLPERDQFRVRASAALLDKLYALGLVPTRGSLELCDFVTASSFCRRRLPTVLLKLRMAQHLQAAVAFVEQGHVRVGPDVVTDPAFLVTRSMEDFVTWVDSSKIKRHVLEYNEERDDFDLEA
UniProt Q9H9H4: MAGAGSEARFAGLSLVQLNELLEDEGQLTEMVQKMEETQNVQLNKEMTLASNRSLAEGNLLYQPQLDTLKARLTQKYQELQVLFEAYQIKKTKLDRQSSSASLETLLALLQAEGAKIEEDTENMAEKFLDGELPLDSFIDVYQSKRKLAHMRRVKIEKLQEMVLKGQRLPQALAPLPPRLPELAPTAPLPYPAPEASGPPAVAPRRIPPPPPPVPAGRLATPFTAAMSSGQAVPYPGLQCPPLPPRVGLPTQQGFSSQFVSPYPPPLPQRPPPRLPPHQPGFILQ
UniProt Q9NRG7: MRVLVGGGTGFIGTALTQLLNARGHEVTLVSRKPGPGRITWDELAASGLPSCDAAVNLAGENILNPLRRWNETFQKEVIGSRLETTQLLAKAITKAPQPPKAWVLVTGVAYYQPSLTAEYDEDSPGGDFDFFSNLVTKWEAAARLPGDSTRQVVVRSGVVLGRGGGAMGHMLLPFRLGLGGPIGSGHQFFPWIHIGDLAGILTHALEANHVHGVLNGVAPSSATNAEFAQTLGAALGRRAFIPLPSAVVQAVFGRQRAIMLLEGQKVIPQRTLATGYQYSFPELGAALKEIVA
UniProt Q9NQC1, whole entry: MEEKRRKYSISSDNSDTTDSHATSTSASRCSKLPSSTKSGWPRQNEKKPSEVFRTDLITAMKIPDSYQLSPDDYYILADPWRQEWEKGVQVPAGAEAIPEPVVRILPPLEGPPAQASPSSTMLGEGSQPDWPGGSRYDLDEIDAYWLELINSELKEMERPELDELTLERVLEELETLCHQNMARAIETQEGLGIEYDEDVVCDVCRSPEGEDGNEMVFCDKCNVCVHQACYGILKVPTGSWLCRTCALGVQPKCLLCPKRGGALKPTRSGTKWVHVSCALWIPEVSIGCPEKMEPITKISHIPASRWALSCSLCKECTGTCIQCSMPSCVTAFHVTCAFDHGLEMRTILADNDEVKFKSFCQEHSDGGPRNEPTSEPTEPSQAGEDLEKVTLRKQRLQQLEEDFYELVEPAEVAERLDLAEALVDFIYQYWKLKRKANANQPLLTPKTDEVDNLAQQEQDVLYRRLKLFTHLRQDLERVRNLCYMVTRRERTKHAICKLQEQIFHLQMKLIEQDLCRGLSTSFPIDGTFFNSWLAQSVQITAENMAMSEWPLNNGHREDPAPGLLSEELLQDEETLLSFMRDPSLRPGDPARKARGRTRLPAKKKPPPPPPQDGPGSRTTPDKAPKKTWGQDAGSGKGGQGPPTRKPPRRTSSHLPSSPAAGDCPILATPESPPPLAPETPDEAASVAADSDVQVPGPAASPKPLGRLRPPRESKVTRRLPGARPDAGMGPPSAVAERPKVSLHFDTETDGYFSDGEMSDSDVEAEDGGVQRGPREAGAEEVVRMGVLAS
UniProt Q9NQ48: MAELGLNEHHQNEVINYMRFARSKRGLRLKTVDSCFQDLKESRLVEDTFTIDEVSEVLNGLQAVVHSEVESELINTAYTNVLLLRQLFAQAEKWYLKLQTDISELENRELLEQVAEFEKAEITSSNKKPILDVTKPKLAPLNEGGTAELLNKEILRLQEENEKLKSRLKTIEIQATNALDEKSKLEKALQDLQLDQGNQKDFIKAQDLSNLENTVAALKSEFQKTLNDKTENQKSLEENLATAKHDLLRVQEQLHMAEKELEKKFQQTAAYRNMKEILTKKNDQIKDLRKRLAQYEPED
UniProt Q9HC77: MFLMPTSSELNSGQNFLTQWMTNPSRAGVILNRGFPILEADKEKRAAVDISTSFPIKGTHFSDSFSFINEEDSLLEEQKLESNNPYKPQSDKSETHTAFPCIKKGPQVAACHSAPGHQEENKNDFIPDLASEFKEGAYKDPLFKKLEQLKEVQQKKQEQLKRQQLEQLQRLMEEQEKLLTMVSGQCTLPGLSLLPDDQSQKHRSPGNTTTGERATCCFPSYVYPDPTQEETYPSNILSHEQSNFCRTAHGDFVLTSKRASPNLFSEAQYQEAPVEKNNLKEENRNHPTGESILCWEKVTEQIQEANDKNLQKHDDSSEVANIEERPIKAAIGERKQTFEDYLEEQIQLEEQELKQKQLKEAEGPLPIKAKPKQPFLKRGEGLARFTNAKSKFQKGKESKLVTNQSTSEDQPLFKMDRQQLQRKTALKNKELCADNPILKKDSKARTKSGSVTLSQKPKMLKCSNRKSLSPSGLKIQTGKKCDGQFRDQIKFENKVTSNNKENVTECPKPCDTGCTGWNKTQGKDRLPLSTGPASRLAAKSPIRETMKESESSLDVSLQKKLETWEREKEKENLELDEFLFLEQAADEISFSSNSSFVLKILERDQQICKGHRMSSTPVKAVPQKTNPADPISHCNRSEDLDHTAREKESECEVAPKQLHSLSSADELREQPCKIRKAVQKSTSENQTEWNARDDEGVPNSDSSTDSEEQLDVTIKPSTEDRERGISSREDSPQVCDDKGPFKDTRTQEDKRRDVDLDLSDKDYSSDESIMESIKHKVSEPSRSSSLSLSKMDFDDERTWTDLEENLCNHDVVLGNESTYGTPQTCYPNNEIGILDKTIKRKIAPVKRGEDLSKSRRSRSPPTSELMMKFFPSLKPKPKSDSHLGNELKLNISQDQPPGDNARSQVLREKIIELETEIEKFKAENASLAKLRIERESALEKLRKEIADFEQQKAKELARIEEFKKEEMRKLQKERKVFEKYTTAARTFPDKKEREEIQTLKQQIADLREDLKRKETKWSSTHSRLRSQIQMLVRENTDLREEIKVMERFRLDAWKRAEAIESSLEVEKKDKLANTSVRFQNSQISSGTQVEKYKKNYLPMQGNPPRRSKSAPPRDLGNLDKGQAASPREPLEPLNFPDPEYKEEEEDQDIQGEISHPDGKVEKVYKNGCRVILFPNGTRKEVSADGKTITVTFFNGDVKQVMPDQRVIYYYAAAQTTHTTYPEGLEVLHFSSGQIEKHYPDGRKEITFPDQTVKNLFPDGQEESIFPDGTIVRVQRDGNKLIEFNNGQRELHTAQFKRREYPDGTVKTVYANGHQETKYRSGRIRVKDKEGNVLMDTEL
UniProt Q9H9E3: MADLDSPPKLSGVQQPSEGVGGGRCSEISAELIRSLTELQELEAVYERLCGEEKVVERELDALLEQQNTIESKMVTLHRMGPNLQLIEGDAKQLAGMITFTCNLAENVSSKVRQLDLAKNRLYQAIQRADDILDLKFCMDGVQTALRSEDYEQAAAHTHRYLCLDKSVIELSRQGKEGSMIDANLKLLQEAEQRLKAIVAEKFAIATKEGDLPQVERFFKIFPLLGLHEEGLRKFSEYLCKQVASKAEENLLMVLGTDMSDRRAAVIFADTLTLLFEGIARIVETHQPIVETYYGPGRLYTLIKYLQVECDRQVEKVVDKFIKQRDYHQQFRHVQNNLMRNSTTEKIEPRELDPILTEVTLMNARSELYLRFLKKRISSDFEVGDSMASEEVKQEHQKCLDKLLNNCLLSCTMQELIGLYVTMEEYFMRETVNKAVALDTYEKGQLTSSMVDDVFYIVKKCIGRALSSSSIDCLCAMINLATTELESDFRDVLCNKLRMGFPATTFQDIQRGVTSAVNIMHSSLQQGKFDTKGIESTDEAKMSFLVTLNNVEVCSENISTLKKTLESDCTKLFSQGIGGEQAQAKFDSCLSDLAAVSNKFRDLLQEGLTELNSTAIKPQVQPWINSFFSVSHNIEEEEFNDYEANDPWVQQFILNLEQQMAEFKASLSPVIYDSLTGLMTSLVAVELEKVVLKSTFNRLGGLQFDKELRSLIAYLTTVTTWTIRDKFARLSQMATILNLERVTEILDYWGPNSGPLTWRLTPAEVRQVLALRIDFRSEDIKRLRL
UniProt Q9NRX1: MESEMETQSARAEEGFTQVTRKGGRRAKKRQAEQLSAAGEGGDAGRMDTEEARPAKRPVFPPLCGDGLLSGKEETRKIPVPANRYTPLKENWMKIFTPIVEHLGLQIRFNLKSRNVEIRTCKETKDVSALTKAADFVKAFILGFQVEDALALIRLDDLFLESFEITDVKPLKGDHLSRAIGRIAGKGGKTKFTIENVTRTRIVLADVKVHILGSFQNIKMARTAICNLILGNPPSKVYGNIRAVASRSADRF

Some of the results follow. This is a noisy data set.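 Many melting curves are irregular; where none melted, Tm was taken as 64 °C.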

As to UniProt Q9HD40, the melting temperature shift is, setting by setting: (MBE1 concentration: 100 nM) -0.861 °C; (MBE1 concentration: 1 uM) 2.35 °C.
As for SPATS2L (UniProt Q9NUQ6), the melting temperature shift is 0.254 °C (MBE1 concentration: 100 nM) and 0.188 °C (MBE1 concentration: 1 uM).
Regarding SFXN1 (UniProt Q9H9B4), the melting temperature shift is -0.879 °C (MBE1 concentration: 100 nM) and 0.241 °C (MBE1 concentration: 1 uM).
Regarding NUDT15 (UniProt Q9NV35), the melting temperature shift reads like this: (MBE1 concentration: 100 nM) -0.67 °C; (MBE1 concentration: 1 uM) -0.14 °C.
The like results for BIRC6 (UniProt Q9NR09) were, in that order, 0.898 °C and 0.775 °C.
The like results for PLGRKT (UniProt Q9HBL7) were, in that order, -6.51 °C and 2.11 °C.
For UFSP2 (UniProt Q9NUQ7) the same measures were 0.953 °C and 0.403 °C.
For UniProt Q9H9L7, the melting temperature shift is, setting by setting: (MBE1 concentration: 100 nM) -0.769 °C; (MBE1 concentration: 1 uM) -0.0917 °C.
As for SDF2L1 (UniProt Q9HCN8), the melting temperature shift is -0.349 °C (MBE1 concentration: 100 nM) and 2.28 °C (MBE1 concentration: 1 uM).
The like results for UniProt Q9NQS7 were, in that order, 0.648 °C and -0.403 °C.
The like results for EML4 (UniProt Q9HC35) were, in that order, 0.372 °C and 0.25 °C.
For UPF2 (UniProt Q9HAU5) the same measures were 0.466 °C and 0.177 °C.
Take SERINC1 (UniProt Q9NRX5): the melting temperature shift reads like this: (MBE1 concentration: 100 nM) -1.4 °C; (MBE1 concentration: 1 uM) -2.26 °C.
The like results for TANC2 (UniProt Q9HCD6) were, in that order, -0.889 °C and -0.428 °C.
The like results for TYW1 (UniProt Q9NV66) were, in that order, 0.0672 °C and -0.922 °C.
Regarding ABCB10 (UniProt Q9NRK6), the melting temperature shift is, setting by setting: (MBE1 concentration: 100 nM) -0.282 °C; (MBE1 concentration: 1 uM) 0.503 °C.
For MYO5C (UniProt Q9NQX4) the same measures were -0.649 °C and -0.781 °C.
For UniProt Q9HC62 the same measures were 1.54 °C and 0.953 °C.
On to PARVA (UniProt Q9NVD7), for which the melting temperature shift reads like this: (MBE1 concentration: 100 nM) 1.59 °C; (MBE1 concentration: 1 uM) 0.879 °C.
On to CHMP1A (UniProt Q9HD42), for which the melting temperature shift reads like this: (MBE1 concentration: 100 nM) -1.55 °C; (MBE1 concentration: 1 uM) 15.7 °C.
For MRPL47 (UniProt Q9HD33) the same measures were 0.47 °C and 0.324 °C.
The like results for UniProt Q9HBD1 were, in that order, 1.4 °C and 0.452 °C.
The like results for HELLS (UniProt Q9NRZ9) were, in that order, -0.147 °C and -0.147 °C.
ACTR5 (UniProt Q9H9F9): the melting temperature shift is -0.838 °C (MBE1 concentration: 100 nM) and 0.327 °C (MBE1 concentration: 1 uM).
For the target GPAM (UniProt Q9HCL2), the melting temperature shift worked out at 0.57 °C (MBE1 concentration: 100 nM) and 0.633 °C (MBE1 concentration: 1 uM).
The like results for DDX28 (UniProt Q9NUL7) were, in that order, -0.762 °C and -0.564 °C.
The like results for SH3GLB2 (UniProt Q9NR46) were, in that order, 0.0733 °C and 0.0282 °C.
For MDN1 (UniProt Q9NU22) the same measures were 0 °C and 0 °C.
With IMP3 (UniProt Q9NV31), the melting temperature shift was -0.725 °C (MBE1 concentration: 100 nM) and -0.892 °C (MBE1 concentration: 1 uM).
Consider GPBP1L1 (UniProt Q9HC44), for which the melting temperature shift was -2.54 °C (MBE1 concentration: 100 nM) and 0.788 °C (MBE1 concentration: 1 uM).
For TIGAR (UniProt Q9NQ88) the same measures were 0.458 °C and 0.0611 °C.
For UniProt Q9HCN3 the same measures were -1.06 °C and -0.293 °C.
The like results for VPS37B (UniProt Q9H9H4) were, in that order, 0.345 °C and -0.69 °C.
In the case of TMEM30A (UniProt Q9NV96), the melting temperature shift was -0.409 °C (MBE1 concentration: 100 nM) and 0.464 °C (MBE1 concentration: 1 uM).
The like results for ARHGAP35 (UniProt Q9NRY4) were, in that order, -0.802 °C and -0.367 °C.
For ABCF3 (UniProt Q9NUQ8) the same measures were -0.442 °C and -0.448 °C.
MCCC2 (UniProt Q9HCC0): the melting temperature shift (MBE1 concentration: 100 nM) was -1.77 °C and the melting temperature shift (MBE1 concentration: 1 uM) was -0.458 °C.
The like results for TNS1 (UniProt Q9HBL0) were, in that order, -1.32 °C and -2.97 °C.
As to CBX8 (UniProt Q9HC52), the melting temperature shift runs as follows: (MBE1 concentration: 100 nM) -0.0513 °C; (MBE1 concentration: 1 uM) 0.032 °C.
As for PLEKHA1 (UniProt Q9HB21), the melting temperature shift was -1.1 °C (MBE1 concentration: 100 nM) and -0.641 °C (MBE1 concentration: 1 uM).
For ARMT1 (UniProt Q9H993) the same measures were 0.39 °C and 0.499 °C.
The like results for SDR39U1 (UniProt Q9NRG7) were, in that order, 0.971 °C and 0.568 °C.
For ANKZF1 (UniProt Q9H8Y5) the same measures were -0.296 °C and -0.268 °C.
As for UniProt Q9H9S4, the melting temperature shift by setting is: (MBE1 concentration: 100 nM) -1.14 °C; (MBE1 concentration: 1 uM) -0.263 °C.
The like results for AGPAT5 (UniProt Q9NUQ2) were, in that order, -0.244 °C and 0.44 °C.
The like results for PDLIM7 (UniProt Q9NR12) were, in that order, 0.294 °C and -0.33 °C.
The like results for MEAF6 (UniProt Q9HAF1) were, in that order, -0.177 °C and 0.378 °C.
For the target UniProt Q9NT99, the melting temperature shift is -0.577 °C (MBE1 concentration: 100 nM) and 0.672 °C (MBE1 concentration: 1 uM).
The like results for DECR2 (UniProt Q9NUI1) were, in that order, -0.0805 °C and -0.805 °C.
On to UniProt Q9NQC1, for which the melting temperature shift is -0.444 °C (MBE1 concentration: 100 nM) and -0.288 °C (MBE1 concentration: 1 uM).
For UniProt Q9HBE1 the same measures were -0.237 °C and -0.762 °C.
As for RAD18 (UniProt Q9NS91), the melting temperature shift is -0.218 °C (MBE1 concentration: 100 nM) and -0.493 °C (MBE1 concentration: 1 uM).
METTL14 (UniProt Q9HCE5): the melting temperature shift (MBE1 concentration: 100 nM) was -1.02 °C and the melting temperature shift (MBE1 concentration: 1 uM) stood at 0.0733 °C.
Take LZTFL1 (UniProt Q9NQ48): the melting temperature shift (MBE1 concentration: 100 nM) was -0.825 °C and the melting temperature shift (MBE1 concentration: 1 uM) was -0.557 °C.
The like results for TBC1D23 (UniProt Q9NUY8) were, in that order, 0.94 °C and 0.415 °C.
For LUC7L (UniProt Q9NQ29) the same measures were -0.0855 °C and 0.684 °C.
The like results for PREB (UniProt Q9HCU5) were, in that order, -0.396 °C and 0.649 °C.
Take UniProt Q9H9S5: the melting temperature shift (MBE1 concentration: 100 nM) worked out at 0.995 °C and the melting temperature shift (MBE1 concentration: 1 uM) was -1.64 °C.
The like results for UniProt Q9HCJ0 were, in that order, 0.452 °C and 0.421 °C.
For SNX15 (UniProt Q9NRS6) the same measures were -0.396 °C and 1.21 °C.
For UniProt Q9NR48, the melting temperature shift by setting is: (MBE1 concentration: 100 nM) 2.07 °C; (MBE1 concentration: 1 uM) 1.96 °C.
Regarding APMAP (UniProt Q9HDC9), the melting temperature shift (MBE1 concentration: 100 nM) was -0.579 °C and the melting temperature shift (MBE1 concentration: 1 uM) was -1.77 °C.
The like results for ENY2 (UniProt Q9NPA8) were, in that order, -2.43 °C and 6.26 °C.
For the target UniProt Q9HC77, the melting temperature shift is, setting by setting: (MBE1 concentration: 100 nM) -2.25 °C; (MBE1 concentration: 1 uM) -0.821 °C.
Consider GLOD4 (UniProt Q9HC38), for which the melting temperature shift is, setting by setting: (MBE1 concentration: 100 nM) 1.18 °C; (MBE1 concentration: 1 uM) 0.293 °C.
As for FN3KRP (UniProt Q9HA64), the melting temperature shift is, setting by setting: (MBE1 concentration: 100 nM) -1.39 °C; (MBE1 concentration: 1 uM) -2.42 °C.
For MED20 (UniProt Q9H944) the same measures were 0.336 °C and 0.458 °C.
The like results for COG4 (UniProt Q9H9E3) were, in that order, -0.329 °C and -0.325 °C.
Take PNO1 (UniProt Q9NRX1): the melting temperature shift by setting is: (MBE1 concentration: 100 nM) -0.0706 °C; (MBE1 concentration: 1 uM) -0.409 °C.

The values above are taken from the supplement of paper PMC12595434, “Development of retinoid nuclear receptor pathway antagonists through targeting aldehyde dehydrogenase 1A3” (iScience, 2025).
